{"source": "the supplement of paper PMC7858590", "note": "± gives the standard deviation of the averaged measurements. Whole data set: some 3,800 compounds, median “cell shape (eccentricity) Z-score vs DMSO control” near 1.1, cut for the lowest 2% near -4.7. Some of the results follow."}
{"tested_on": "human monocyte-derived macrophages (M0)", "test": "cell shape (eccentricity) Z-score vs DMSO control; higher = more elongated, M2-like morphology", "details": "20 µM; 24 h; macrophage state: M0 (M-CSF)"}
{"molecule": "CN(C)c1ccc(C(=C2C=CC(=[N+](C)C)C=C2)c2ccc(N(C)C)cc2)cc1", "cell shape (Z-score)": -4.21}
{"molecule": "Oc1c(Cl)cc(Cl)c(Cl)c1Cc1c(O)c(Cl)cc(Cl)c1Cl", "cell shape (Z-score)": 2.11}
{"molecule": "COc1ccc2ccc(=O)oc2c1C(OC(C)=O)C(=O)C(C)C", "note": "(stereo unspecified)", "cell shape (Z-score)": 2.3}
{"molecule": "O=C1C[C@@H](c2ccccc2)Oc2cc(O)cc(O)c21", "cell shape (Z-score)": -0.699}
{"molecule": "CC1C(OC(=O)C(O)c2ccccc2)CCC(C)(C)N1C", "note": "(stereo unspecified)", "cell shape (Z-score)": 1.74}
{"molecule": "CCCCCCCC(O)C(O)C1CC(OC)=CC(=O)O1", "note": "(stereo unspecified)", "cell shape (Z-score)": 0.184}
{"molecule": "Nc1nc(Cl)nc2c1ncn2C1OC(CO)C(O)C1F", "note": "(stereo unspecified)", "cell shape (Z-score)": 0.328}
{"molecule": "O=c1cc(-c2ccc(O)cc2)oc2cc(O)c(C3OC(CO)C(O)C(O)C3O)c(O)c12", "note": "(stereo unspecified)", "cell shape (Z-score)": -3.39}
{"molecule": "COc1ccc(-c2noc(CC(=O)O)c2-c2ccc(OC)cc2)cc1", "cell shape (Z-score)": -1.42}
{"molecule": "CNC(=N)NC(=O)Nc1c(C)cccc1C", "cell shape (Z-score)": 1.21}
{"molecule": "COC1CC(OC2CCC3(C)C(CCC4(O)C3CC(OC(=O)c3ccccc3)C3(C)C(O)(C(C)=O)CCC43O)C2)OC(C)C1OC1CC(OC)C(OC2OC(C)C(OC3OC(CO)C(O)C(O)C3O)C(OC)C2O)C(C)O1", "note": "(stereo unspecified)", "cell shape (Z-score)": -0.183}
{"molecule": "Cc1ccc(S(=O)(=O)OCC(=O)Nc2ccc(C(=O)O)c(O)c2)cc1", "cell shape (Z-score)": 5.47}
{"molecule": "C/C(=C\\CCC1(C)C2CC3C(C2)C31C)C(=O)O", "note": "(stereo unspecified)", "cell shape (Z-score)": -2.64}
{"molecule": "C/C=C(/C)C(=O)O[C@@H]1c2cc(OC)c(OC)cc2-c2c(ccc(OC)c2OC)C[C@H]2C(=O)OC[C@H]12", "cell shape (Z-score)": "-2.36 ± 3.5"}
{"molecule": "C=C1C(O)CC2C(C(=O)OC)=CO[C@@H](O[C@@H]3O[C@H](CO)[C@@H](O)[C@H](O)[C@H]3O)C12", "note": "(stereo partly specified)", "cell shape (Z-score)": 0.0775}
{"molecule": "COc1ccccc1N1CCN(CCN2C(=O)c3ccccc3C(C)(C)C2=O)CC1", "cell shape (Z-score)": 2.56}
{"molecule": "COc1ccc(C2Oc3c(OC)cc(CCCO)cc3C2CO)cc1OC1OC(CO)C(O)C(O)C1O", "note": "(stereo unspecified)", "cell shape (Z-score)": -0.384}
{"molecule": "COc1ccc(OC)c2c(=S)c3ccccc3[nH]c12", "cell shape (Z-score)": -0.54}
{"molecule": "O=C(CC(O)(CC(=O)OCc1ccc(O[C@@H]2O[C@H](CO)[C@@H](O)[C@H](O)[C@H]2O)cc1)C(=O)OCc1ccc(O[C@@H]2O[C@H](CO)[C@@H](O)[C@H](O)[C@H]2O)cc1)OCc1ccc(O[C@@H]2O[C@H](CO)[C@@H](O)[C@H](O)[C@H]2O)cc1", "cell shape (Z-score)": 3.21}
{"molecule": "O=C(O)/C=C/CCCCCCCC(=O)O", "cell shape (Z-score)": 1.27}
{"molecule": "CNC(CC(=O)O)C(=O)O", "note": "(stereo unspecified)", "cell shape (Z-score)": 2.59}
{"molecule": "CCOc1cc(/C=C(/C#N)C(N)=O)cc(CSc2ccccc2)c1O", "cell shape (Z-score)": 2.62}
{"molecule": "CCCc1c(-c2ccc(O)cc2)nn(-c2ccc(O)cc2)c1-c1ccc(O)cc1", "cell shape (Z-score)": 2.99}
{"molecule": "COc1ccc(-c2nc(C(=O)N3CCN(C)CC3)sc2-c2ccc(OC)cc2)cc1", "cell shape (Z-score)": 0.472}
{"molecule": "CNNCc1ccc(C(=O)NC(C)C)cc1", "cell shape (Z-score)": 2.01}
{"molecule": "C#CC1(O)CCC2C3CCC4=Cc5oncc5CC4(C)C3CCC21C", "note": "(stereo unspecified)", "cell shape (Z-score)": 5.13}
{"molecule": "CC(=O)[C@H]1CCC2C3CCC4=CC(=O)CC[C@]4(C)C3[C@H](OC(=O)CCC(=O)O)C[C@@]21C", "note": "(stereo partly specified)", "cell shape (Z-score)": 0.421}
{"molecule": "Cc1cc(O)c2c(c1)C(=O)OC2c1c(O)cccc1O", "note": "(stereo unspecified)", "cell shape (Z-score)": "2.62 ± 1.9"}
{"molecule": "O=C1c2ccccc2C(=O)C1c1ccc(Cl)cc1", "cell shape (Z-score)": 3.26}
{"molecule": "CC(C)Cn1c(=O)n(C)c(=O)c2nc[nH]c21", "cell shape (Z-score)": -1.69}
{"molecule": "FC(F)(F)c1ccc(Nc2nccc(-c3cccc(Cl)c3)n2)cc1", "cell shape (Z-score)": 2.57}
{"molecule": "C[C@@H]1O[C@@H](Oc2ccc3c(=O)c(-c4ccc(O)cc4)coc3c2)[C@H](O)[C@H](O)[C@H]1O", "cell shape (Z-score)": "-0.761 ± 1.1"}
{"molecule": "COc1cc(N)c(Cl)cc1C(=O)OCCCN1CCCCC1", "cell shape (Z-score)": 0.848}
{"molecule": "Cc1cc([C@@H](C)Nc2ccccc2C(=O)O)c2nc(N3CCOCC3)cc(=O)n2c1", "cell shape (Z-score)": 4.32}
{"molecule": "O=c1c(-c2ccc(O)cc2)coc2cc(O)ccc12", "cell shape (Z-score)": 2.92}
{"molecule": "CC(C)(C(=O)NCC(F)(F)C(F)(F)F)C(=O)N[C@@H]1C(=O)Nc2ccccc2-c2ccccc21", "cell shape (Z-score)": 2.37}
{"molecule": "CC(=O)O[C@@H]1CC2C(C)(C)[C@H](O)CC[C@]2(C)C2CC[C@@]3(C)[C@H](c4ccoc4)OC(=O)C4OC43[C@@]21C", "note": "(stereo partly specified)", "cell shape (Z-score)": 2.33}
{"molecule": "COc1ccc2c(c1)c(CC(=O)OCC(=O)O)c(C)n2C(=O)c1ccc(Cl)cc1", "cell shape (Z-score)": 2.11}
{"molecule": "COC(=O)[C@@H]1[C@H]2C[C@H]3c4[nH]c5ccccc5c4CCN3C[C@@H]2CC[C@@H]1O", "cell shape (Z-score)": -0.402}
{"molecule": "COc1[nH]c(N)nc2ncnc1-2", "cell shape (Z-score)": 1.66}
{"molecule": "Nc1nc2ccc(OC(F)(F)F)cc2s1", "cell shape (Z-score)": 6.29}
{"molecule": "C=C(C(=O)O)[C@@H]1CC[C@@]2(C)C=CC(=O)[C@@H](CCC3(O)C(=O)C=C[C@]4(C)CC[C@@H](C(=C)C(=O)O)C[C@@H]34)[C@@H]2C1", "note": "(stereo partly specified)", "cell shape (Z-score)": 1.43}
{"molecule": "CCCCC/C=C/C(=O)CCc1ccc(O)c(OC)c1", "cell shape (Z-score)": -1}
{"molecule": "N#CC(=Cc1ccc(O)c(O)c1)C(=O)NCc1ccccc1", "cell shape (Z-score)": -2.23}
{"molecule": "c1ccc(-c2n[nH]cc2-c2ccnc3ccccc23)nc1", "cell shape (Z-score)": 6.3}
{"molecule": "C/C(=C\\CCC1(C)C2CCC(C2)C1(C)O)C(=O)O", "note": "(stereo unspecified)", "cell shape (Z-score)": -2.12}
{"molecule": "O=c1c2ccccc2nc(/C=C/c2cccnc2)n1Cc1ccccc1", "cell shape (Z-score)": -3}
{"molecule": "COc1ccc(C[C@H]2COC(=O)[C@@H]2Cc2ccc(O[C@@H]3O[C@H](CO)[C@@H](O)[C@H](O)[C@H]3O)c(OC)c2)cc1OC", "cell shape (Z-score)": 2.24}
{"molecule": "COc1cc(-c2coc3cc(O[C@@H]4O[C@H](CO)[C@@H](O)[C@H](O)[C@H]4O)c(OC)c(O)c3c2=O)cc(O)c1OC", "cell shape (Z-score)": 0.753}
{"molecule": "O=C(Nc1ccccc1)C12CC1C(=NO)c1ccccc1O2", "note": "(stereo unspecified)", "cell shape (Z-score)": -0.435}
{"molecule": "CC1O[C@@H](Oc2c(-c3ccc(O)c(O)c3)oc3cc(O)cc(O)c3c2=O)[C@H](O)[C@H](O)[C@H]1O", "note": "(stereo partly specified)", "cell shape (Z-score)": 1.34}
{"molecule": "C[C@H](CO)N1C[C@H](C)[C@@H](CN(C)C(=O)NC2CCCCC2)Oc2ccc(NC(=O)Cc3cn(C)c4ccccc34)cc2C1=O", "cell shape (Z-score)": 4.05}
{"molecule": "COc1cccc(OC)c1C(=O)N[C@@H]1C(=O)N2[C@@H]1SC(C)(C)[C@@H]2C(=O)O", "cell shape (Z-score)": 1.23}
{"molecule": "C[C@@H]1O[C@@H](O[C@@H]2[C@@H](O)[C@H](OCCc3ccc(O)c(O)c3)O[C@H](CO[C@@H]3OC[C@](O)(CO)[C@H]3O)[C@H]2OC(=O)/C=C/c2ccc(O)c(O)c2)[C@H](O[C@@H]2OC[C@H](O)[C@H](O)[C@H]2O)[C@H](O)[C@H]1O", "cell shape (Z-score)": 1.71}
{"molecule": "COc1c(O)cc(-c2oc3cc(O)cc(O)c3c(=O)c2O[C@@H]2O[C@@H](C)[C@H](O)[C@@H](O)[C@H]2O)cc1O", "cell shape (Z-score)": 0.909}
{"molecule": "CN(C)CCCN1c2ccccc2Sc2ccc(Cl)cc21", "cell shape (Z-score)": 2.57}
